The campaign covered roughly 53,000 sequences. About 3,700 (7%) were called active.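 The calls were made as follows: active = gene knockdowns whose robust z-score for IL-1 alpha signal is at least 2 or at most -2, so actives lie on both sides; inactive = the rest.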 This is one part of the list.

A short description of the assay: Components of the Cytosolic LPS Sensing Pathway: Gene Identification via Genome-wide siRNA Screen.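 Also: robust z of the log signal after scaling to non-targeting control siRNA wells of the plate.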 The following applies: RAW264.7 macrophages, IL-1a HTRF, actives lie on both sides, screened at 100 nM (by protocol), cells primed 5 h with Pam3CSK4 first. An outline of the steps:
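Using IL-1a HTRF as read-out, the screen measured release from RAW264.7 cells after 48h siRNA knockdown (100 nM), 5 h Pam3CSK4 priming and 24 h cytosolic LipidA. Values were expressed relative to negative-control wells as robust z-scores.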
(In general: Time-resolved FRET reads energy transfer from a long-lived donor to a nearby acceptor.)
On to GGCCAUCCAUUGAAGACAUTT against Stk-ps2, for which the z-score was inactive: 1.05.
The same measure for GGUCCUAGACUGGUGUCAUTT against Adat2: inactive: 0.964; for “CCGGCACACCAUUGAUUUCTT against 4931428F04Rik”: inactive: -1.73; for GGAAACACUAAAGUCAUUUTT against Gabrg1: inactive: 0.823.
The same measure for CCGAGGACUAUUUGAAACGTT against Mrtfa: inactive: -1.46.
GGGUGUUGUGUCCUCUCAATT against Gckr: the z-score was inactive: 0.0744.
The same measure for GGUAAAUCAAAUCACUGCCTT against Slamf1: inactive: 0.316; for CGUAGGUUGUAAUGGUGGCTT against BC051665: inactive: 1.19.
On to GGGAAUUAGAUGUGUGUAUTT against Dpp6, for which the z-score was inactive: -0.237.
With GGGAUAUUCACUUUUGUAGTT against Arnt, the z-score is inactive: -1.42.
Next, GGGAUACUACUUUCUAACATT against Rspo3: inactive: 1.29.
The same measure for CCUCAUAGAAUGAACAUGATT against Timp3: inactive: -0.718; for GCCAUUUCUUAUCAAGUGGTT against Laptm4a: active: -2.63; for GCGGUUUCUCCUUGGUAAATT against Ankmy1: inactive: 0.15.
Next, GGGACGUGAACAGCUAAAGTT against Vipas39: inactive: 0.516; GGUCUUGUCGAUGUUCGCATT against Abhd6: inactive: 1.78.
For GGUUUUGUACUUUCAUAGATT against Fam111a, the z-score was inactive: 0.523.
In the case of GGUGCAUGAAGAGUUAAAATT against Jade1, the z-score is inactive: 1.5.
The same measure for CCAUGCUUCCCUUCAACAUTT against Adcy2: active: 2.64; for GGAGAUCUUCAAGAAUUCATT against Entpd5: inactive: 0.196; for GGUUUCCAUAUUUGGAUCCTT against Dhx40: inactive: 0.0331.
Next, CCAAGUUCUAUCAACGAAGTT against Olfr175: inactive: -1.12.
As to GCUAUCAUGCAAGAUGGCATT against Neurl4, the z-score is inactive: 0.00571.
The same measure for GGAGAUGGUUAUUUAAAGATT against Wbp2: inactive: -0.427; for GGACAGAGAAAAAGUAUCATT against Eps8l1: inactive: 0.51; for CCACUACAACAACACUUAUTT against Keg1: inactive: 0.84.
As for CUCUGUCUUGAUUGUCAUUTT against Olfr1329, the z-score is inactive: 1.39.
The same measure for GGCUCUGUAUUAAAGAGUUTT against Ino80e: inactive: 1.93.
For GGUGGAGAUGAUGGUUCAGTT against Tbxa2r, the z-score was inactive: -1.38.
Next, GGAAGUGGUGCGCAAGAUGTT against Fam83g: inactive: -0.83; CCAUGGAUAUUAUCUGUACTT against Olfr538: inactive: -0.0186.
As to GCACUUAGUCCUACAUGACTT against Fut1, the z-score is inactive: -1.21.
Next, GGGUUACGGUUGUGGAUGUTT against Ugdh: inactive: -0.936.
The same measure for GGACUACCUGCUCUUGAAATT against Wdr93: inactive: 0.554.
Regarding GGAGGCUGUGUUCUGAUGGTT against Mlycd, the z-score is inactive: 0.103.
Next, GCCCUACUGUAUUGUUAGCTT against Lamb1: inactive: -0.068.
Turning to CCUAACAACCAGUUUAUGATT against Rasa1, the z-score was inactive: -0.985.
Regarding GGUCAUGAGUCCACUGUUUTT against Ciao1, the z-score was inactive: -1.02.
As for GGGCAUAGAGUCUCAAACUTT against Ptger1, the z-score was inactive: -0.588.
Next, GCGGUAUCAUCAGUGAACCTT against Cxxc5: inactive: 1.22.
As to GGGAAAGUUUCUGCAUUCUTT against Lce1d, the z-score is active: 2.07.
Next, GGCUUCAUUGACAAGAAUATT against Myo1g: inactive: 0.649; GGAACAAAAUACAUUCAAGTT against Vmn2r57: inactive: 0.157; CCCUCUAUGCCAAAAGCUATT against Acer2: inactive: -0.394.
Next, GCAUAGGGUCAUUUCAAGCTT against Kif23: inactive: 0.0957; GGAGUAGAUGACAACACUATT against Defb19: inactive: -0.401.
For GGGAAAUUCUGUUCUUUUGTT against Gng11, the z-score was inactive: 0.532.
As to GGAUUGGAUAUUGAGAAGGTT against Rexo2, the z-score is inactive: -1.72.
Regarding GGAGUCUCUGAAGAAAACATT against Hus1, the z-score was inactive: -0.596.
Next, GGCACUCUCAGCUUUUGACTT against Olfr2: active: -2.43; GGUGUUAAACACUGAUUCUTT against Brs3: inactive: 1.12.
For GAGCGAGUUCGAUUGCUUCTT against Cited4, the z-score is inactive: -0.843.
Next, GGGAAGAAGACAAAAACAUTT against Acbd6: inactive: -1.03.
The same measure for GCUUCGGAAUCGGUUACCATT against Alg2: inactive: -1.28.
Turning to GUAUCCUUAUUUUUGCCCATT against Vmn1r53, the z-score is inactive: -1.27.
The same measure for GCUCUCCAUUACGUGCUUGTT against Rrp9: inactive: 1.39; for GGAUUUUAUCUCCUUUCAATT against Tecta: inactive: -0.174; for GGAGCUUCUGACUAAUUAUTT against Rad54l2: inactive: 0.431.
Take GGUCUGGAAUGGAGAACAGTT against Suox: the z-score was active: 2.73.
Turning to GCGCGCAGUGAACGAAAAATT against Mycn, the z-score was inactive: 1.14.
GGCAGCUCCUCAUGAUAUUTT against Nagk: the z-score is inactive: 0.435.
On to GGUGACCAGGCUUAAAUCGTT against Bet1l, for which the z-score is inactive: -0.721.
The same measure for CGAAGUGACAAUAAAUCAGTT against Snapc5: inactive: -0.0661; for GGUACAACCUCGAAACUGGTT against Mpc1: inactive: 0.173.
The same measure for CCAUCGAAUGAAACUCAUGTT against Trim24: inactive: 0.337; for GGAUUCUAGGAGAGAAUCATT against Cplx3: inactive: 0.897.
The same measure for CGACCAUGUGACUUGUGUCTT against Lrp1b: inactive: 0.0598; for GGGAAGAAGAGGAAGGAUUTT against Taf1a: inactive: -1.62; for GCGUGGUACCUCAAGUCUATT against Map3k5: inactive: 0.0421.
As for GUUCCUGUUCCACUACUGCTT against Sts, the z-score was active: -2.32.
The same measure for GGAGGAAAGAAUGUGUAAATT against Birc3: inactive: 0.386.
Next, GGGAGAUCUUUAAGAGAAATT against Tfap2a: inactive: 0.783; GGAAUUCCUUCGUUUCCUUTT against Usp2: inactive: 1.64; GGAUUAGCCUGGUCCUUUUTT against Dusp14: inactive: 0.989.
Next, “GCACAUGACCAACAAUACCTT against 4932438A13Rik”: inactive: -0.352; GGAAGACUUUGAAUACCACTT against Slc4a2: inactive: 0.457.
Regarding GGAUUUCUACUCUAAGCUGTT against Setdb1, the z-score is inactive: -0.219.
As to UUAUCCCGUGCAAAUGAAGTT against Akr1c19, the z-score is inactive: -0.427.
Consider CCAUGUAUAUCUCAUAGCATT against Rnf26, for which the z-score was inactive: 0.646.
Turning to GGACCAGGAACAGUUCGAATT against Rela, the z-score was inactive: 0.121.
The same measure for “GGCAAAGACCCAAGAAGUGTT against 1700029H14Rik”: inactive: 1.77.
Next, CGAACCCUAGCGGAAAUUGTT against Nono: inactive: -1.54.
Next, GGCUAAAGGAAACUCACCUTT against Duoxa2: active: -3.33; GGCACGUAUCAGUGUCAAGTT against Cd3g: inactive: 0.111.
Take GCUGGUUUCAUCCGCCAUATT against Dvl3: the z-score is inactive: 1.18.
The same measure for GGUCACAUUUUGUGAUUUUTT against Tmem30b: inactive: 0.881.
Consider CCAUAAGCACAUGAUUGAGTT against Prl7c1, for which the z-score is inactive: 0.0877.
For the sequence GGUUUAGAAUGCAUAACAGTT against Dzank1, the z-score was inactive: -0.217.
Take GGAUUUGGAUUUGGAUUUUTT against Tsc22d3: the z-score is inactive: 0.387.
The same measure for GCCUGUUCGGGAAUCUUACTT against Olfr297: active: 2.42.
Next, GGAACUUCCCUAUAGUGAATT against Hdac3: inactive: -1.52.
Next, GGCAAGAAAAACACUUUAUTT against Parp3: inactive: 1.85; GGAGAAGAAGAUUUUCCAGTT against Irf2: inactive: 0.651.
GGUGUUUAAAGAUUUCGUUTT against Dhrs2: the z-score was inactive: -0.215.
Next, GGAAUAUGAAGAAGAAUUGTT against Adam7: inactive: -0.0664.
In the case of GGAGUUGACCACACUGCUUTT against Smtn, the z-score was inactive: -1.09.
As for GCUGACUUGCACAUUCGAUTT against Mpzl1, the z-score is inactive: 1.08.
Next, GGGAUACAGAUUUUGUUUATT against Olfr1261: inactive: -0.116.
In the case of GGCUGUUGUACUACACCAATT against Olfr629, the z-score is inactive: 0.0486.
Next, UCCAGAGGAUCCGCUGUGATT against Krt74: inactive: -0.632; CGUAGAGUUAAUUACACAATT against Gria4: inactive: 1.84.
For the sequence GCAACGAGCAAAAAGCAUGTT against Htr2a, the z-score is inactive: -0.794.
Next, GGACCAUAAAUGAGACCCATT against Sulf2: inactive: -1.89; GGGCAAGCAGUUCAUUCUGTT against Nr2c1: inactive: 0.361; CCGGGAGCUACAAAAACUUTT against Ppp2r5d: inactive: 1.83.
Next, GGAGCUCAACAAAGACCUGTT against Yrdc: inactive: -0.098; GGAAUAUAGCGACAUCAUATT against Apba2: inactive: -0.0671.

The values are drawn from PubChem BioAssay AID1508600 (Functional Genomics Laboratory (NCATS/FGL), 2020).
